Experimental data published in patent US12016858B2, “Methods for the treatment of abnormal involuntary movement disorders” (AUSPEX PHARMACEUTICALS, INC., priority 2015, dated 2024).

Test system: subjects with manifest HD, chorea
Assay: ARC-HD open-label, single-arm study (Rollover and Switch cohorts)
Type: in vivo, human
Settings: Week 28
Source text: In a second clinical trial, a method for converting patients with adequate control of chorea with tetrabenazine to deutetrabenazine treatment was implemented. Alternatives for Reducing Chorea in Huntington Disease (ARC-HD) was an open-label, single-arm study in which subjects with manifest HD who were receiving FDA-approved doses of tetrabenazine for the treatment of chorea or had successfully completed First-HD were invited to participate. The study thus comprised two cohorts. […] The investigator, in consultation with the subject and caregiver, determined when an adequate level of chorea control had been achieved. If a subject experienced a “clinically significant” adverse event attributable to deutetrabenazine, the investigator determined if a dose reduction or suspension was necessary. […] The investigator, in consultation with the subject and caregiver, determined when an adequate level of chorea control was achieved; the dose of DTBZ could be increased on a weekly basis until there was adequate control of chorea, the subject experienced a protocol defined clinically significant adverse event, or the maximal allowable dose was reached. […]

[2H]C([2H])([2H])Oc1cc2c(cc1OC([2H])([2H])[2H])C1CC(=O)C(CC(C)C)CN1CC2 (stereo not drawn) [deutetrabenazine, (RR, SS)-1,3,4,6,7,11b-hexahydro-9,10-di(methoxy-d3)-3-(2-methylpropyl)-2H-benzo[a]quinolizin-2-one]
weight loss (trend) (Rollover Cohort): 1.4 kg
weight loss (trend) (Switch cohort): 1.9 kg
